# Test results as given in the supplement of paper PMC6411743.
# ± gives the standard deviation of the averaged measurements. The list shows a part of the results.
# Legend:
# Assay in all cases: NP40-soluble protein abundance relative to vehicle (solubility fold change) (ratio); higher = more soluble protein in presence of GTP
# [1] = molecular target: T1, UniProt Q99808 and related entries
# T1 sequence (whole entry): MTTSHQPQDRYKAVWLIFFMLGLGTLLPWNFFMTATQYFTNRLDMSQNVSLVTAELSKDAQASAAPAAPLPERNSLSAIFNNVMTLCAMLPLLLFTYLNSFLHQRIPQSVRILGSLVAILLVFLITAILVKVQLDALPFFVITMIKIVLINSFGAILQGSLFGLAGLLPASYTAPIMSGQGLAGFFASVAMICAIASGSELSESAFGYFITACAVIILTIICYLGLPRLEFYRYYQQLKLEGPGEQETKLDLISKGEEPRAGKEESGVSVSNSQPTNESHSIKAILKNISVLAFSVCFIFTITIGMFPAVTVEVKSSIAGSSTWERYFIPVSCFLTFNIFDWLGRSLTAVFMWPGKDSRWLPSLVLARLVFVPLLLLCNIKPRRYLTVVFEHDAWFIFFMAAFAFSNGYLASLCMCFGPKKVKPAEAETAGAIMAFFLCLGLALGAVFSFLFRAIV
# Method in brief: (§1)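 In three independent experiments, Jurkat crude lysate made by Dounce homogenisation was treated for 10 min at room temperature and then 3 min at 37 °C with eight concentrations ranging from 0.1 to 10 mM. It was then solubilised with 0.8% NP40 plus benzonase for 60 min at 4 °C and ultracentrifuged. The supernatant was TMT-labelled for LC-MS/MS, and each value is the fold change against the detergent-processed vehicle for the same replicate, using vsn-normalised intensities.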
# UniProt Q9BRT3 = molecular target: T2, UniProt Q9BRT3
# T2 sequence (whole entry): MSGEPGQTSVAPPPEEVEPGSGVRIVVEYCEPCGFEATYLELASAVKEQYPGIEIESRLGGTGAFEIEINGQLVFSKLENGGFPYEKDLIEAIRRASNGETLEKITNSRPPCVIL
# Method in brief: as §1
# [2] = molecular target: T3, UniProt Q9BTC8 and related entries
# T3 sequence (whole entry): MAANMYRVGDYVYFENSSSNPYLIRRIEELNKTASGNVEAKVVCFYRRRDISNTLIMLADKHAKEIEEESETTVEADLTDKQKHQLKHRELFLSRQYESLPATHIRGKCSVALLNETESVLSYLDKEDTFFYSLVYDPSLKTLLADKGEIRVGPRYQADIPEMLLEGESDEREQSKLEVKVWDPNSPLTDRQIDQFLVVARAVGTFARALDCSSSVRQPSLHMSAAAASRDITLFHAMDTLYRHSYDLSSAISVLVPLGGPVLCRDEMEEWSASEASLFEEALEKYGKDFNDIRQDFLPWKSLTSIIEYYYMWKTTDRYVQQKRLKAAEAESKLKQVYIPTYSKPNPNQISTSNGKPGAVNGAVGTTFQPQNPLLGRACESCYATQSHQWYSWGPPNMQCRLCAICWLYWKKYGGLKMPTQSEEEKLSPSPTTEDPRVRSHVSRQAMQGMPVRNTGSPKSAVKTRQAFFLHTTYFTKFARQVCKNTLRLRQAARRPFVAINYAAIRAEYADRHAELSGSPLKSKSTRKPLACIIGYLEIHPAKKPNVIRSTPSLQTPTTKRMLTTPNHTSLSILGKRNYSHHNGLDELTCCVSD
# Method in brief: as §1
# [3] = molecular target: T4, UniProt Q9BUJ2 and related entries
# T4 sequence (whole entry): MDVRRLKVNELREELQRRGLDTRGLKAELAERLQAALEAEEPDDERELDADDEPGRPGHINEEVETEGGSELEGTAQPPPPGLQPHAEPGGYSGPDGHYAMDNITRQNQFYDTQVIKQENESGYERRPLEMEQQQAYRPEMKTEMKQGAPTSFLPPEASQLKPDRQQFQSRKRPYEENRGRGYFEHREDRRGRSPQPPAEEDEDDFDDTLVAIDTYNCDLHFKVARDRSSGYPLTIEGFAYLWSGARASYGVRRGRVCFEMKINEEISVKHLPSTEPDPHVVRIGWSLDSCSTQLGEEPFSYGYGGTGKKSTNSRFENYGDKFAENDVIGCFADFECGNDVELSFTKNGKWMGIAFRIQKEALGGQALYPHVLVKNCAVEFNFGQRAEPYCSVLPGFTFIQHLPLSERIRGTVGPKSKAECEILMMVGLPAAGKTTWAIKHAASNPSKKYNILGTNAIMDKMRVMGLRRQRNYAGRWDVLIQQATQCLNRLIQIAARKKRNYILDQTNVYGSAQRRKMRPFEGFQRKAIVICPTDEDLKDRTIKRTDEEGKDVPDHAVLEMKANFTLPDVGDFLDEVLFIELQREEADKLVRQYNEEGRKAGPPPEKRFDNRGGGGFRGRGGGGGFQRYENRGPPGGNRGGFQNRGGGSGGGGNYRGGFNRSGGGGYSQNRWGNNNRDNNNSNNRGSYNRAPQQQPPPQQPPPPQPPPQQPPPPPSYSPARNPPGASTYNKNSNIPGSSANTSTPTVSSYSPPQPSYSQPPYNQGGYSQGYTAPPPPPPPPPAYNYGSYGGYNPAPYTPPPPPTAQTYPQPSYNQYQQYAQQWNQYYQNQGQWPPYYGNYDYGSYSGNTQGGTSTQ
# Method in brief: as §1
# [4] = molecular target: T5, UniProt Q9BY77 and related entries
# T5 sequence (whole entry): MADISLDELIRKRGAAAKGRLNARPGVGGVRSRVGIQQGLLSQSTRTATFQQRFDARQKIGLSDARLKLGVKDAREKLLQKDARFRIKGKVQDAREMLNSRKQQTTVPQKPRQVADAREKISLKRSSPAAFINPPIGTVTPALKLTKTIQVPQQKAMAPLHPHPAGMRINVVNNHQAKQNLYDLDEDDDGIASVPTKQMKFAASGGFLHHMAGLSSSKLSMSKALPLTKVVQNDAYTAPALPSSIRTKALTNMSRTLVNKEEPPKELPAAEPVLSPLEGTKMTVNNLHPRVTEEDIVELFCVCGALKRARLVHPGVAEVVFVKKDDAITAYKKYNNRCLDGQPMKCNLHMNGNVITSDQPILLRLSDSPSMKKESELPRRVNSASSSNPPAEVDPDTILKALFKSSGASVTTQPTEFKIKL
# Method in brief: as §1
# [5] = molecular target: T6, UniProt Q9BYJ9 and related entries
# T6 sequence (whole entry): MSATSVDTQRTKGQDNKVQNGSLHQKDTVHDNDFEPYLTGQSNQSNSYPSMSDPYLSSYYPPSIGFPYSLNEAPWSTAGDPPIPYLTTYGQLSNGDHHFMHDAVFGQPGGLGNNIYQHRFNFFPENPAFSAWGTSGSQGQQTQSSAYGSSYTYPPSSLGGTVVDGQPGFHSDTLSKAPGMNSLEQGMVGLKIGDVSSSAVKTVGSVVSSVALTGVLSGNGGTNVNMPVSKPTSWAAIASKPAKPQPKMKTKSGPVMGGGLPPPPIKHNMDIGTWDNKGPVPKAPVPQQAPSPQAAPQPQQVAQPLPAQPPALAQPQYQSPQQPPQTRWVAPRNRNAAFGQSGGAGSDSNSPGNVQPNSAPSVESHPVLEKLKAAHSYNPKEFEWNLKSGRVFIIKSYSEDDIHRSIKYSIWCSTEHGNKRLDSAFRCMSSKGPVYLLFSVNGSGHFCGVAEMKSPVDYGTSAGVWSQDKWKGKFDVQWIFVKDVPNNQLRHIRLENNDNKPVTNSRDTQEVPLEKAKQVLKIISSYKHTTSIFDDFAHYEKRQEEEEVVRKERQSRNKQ
# Method in brief: as §1
# VRK1 = molecular target: T7, VRK1 (UniProt Q99986)
# T7 sequence (whole entry): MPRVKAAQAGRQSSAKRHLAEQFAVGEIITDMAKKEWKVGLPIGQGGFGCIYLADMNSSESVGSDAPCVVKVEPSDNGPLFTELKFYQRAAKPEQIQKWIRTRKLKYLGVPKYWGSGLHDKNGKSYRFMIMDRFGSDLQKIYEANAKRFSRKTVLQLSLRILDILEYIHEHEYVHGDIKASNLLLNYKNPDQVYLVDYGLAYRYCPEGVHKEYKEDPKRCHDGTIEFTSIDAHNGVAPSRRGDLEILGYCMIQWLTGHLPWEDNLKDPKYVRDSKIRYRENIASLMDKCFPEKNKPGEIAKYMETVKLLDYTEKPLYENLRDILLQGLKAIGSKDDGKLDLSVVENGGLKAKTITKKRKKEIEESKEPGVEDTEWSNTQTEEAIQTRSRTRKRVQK
# Method in brief: as §1
smiles,measurement,setting,value
Nc1nc2c(ncn2[C@@H]2O[C@H](COP(=O)(O)OP(=O)(O)OP(=O)(O)O)[C@@H](O)[C@H]2O)c(=O)[nH]1 [guanosine triphosphate],NP40-soluble protein abundance,[1]; concentration: 4mM,0.773 ± 0.035
same,NP40-soluble protein abundance,[1]; concentration: 6mM,0.857 ± 0.042
same,NP40-soluble protein abundance,[1]; concentration: 8mM,0.77 ± 0.085
same,NP40-soluble protein abundance,[1]; concentration: 10mM,0.812 ± 0.042
same,NP40-soluble protein abundance,UniProt Q9BRT3; concentration: 0.1mM,0.965 ± 0.026
same,NP40-soluble protein abundance,UniProt Q9BRT3; concentration: 0.5mM,0.918 ± 0.075
same,NP40-soluble protein abundance,UniProt Q9BRT3; concentration: 1mM,0.931 ± 0.064
same,NP40-soluble protein abundance,UniProt Q9BRT3; concentration: 2mM,0.857 ± 0.079
same,NP40-soluble protein abundance,UniProt Q9BRT3; concentration: 4mM,0.849 ± 0.085
same,NP40-soluble protein abundance,UniProt Q9BRT3; concentration: 6mM,0.836 ± 0.1
same,NP40-soluble protein abundance,UniProt Q9BRT3; concentration: 8mM,0.836 ± 0.09
same,NP40-soluble protein abundance,UniProt Q9BRT3; concentration: 10mM,0.838 ± 0.079
same,NP40-soluble protein abundance,[2]; concentration: 0.1mM,1.03 ± 0.086
same,NP40-soluble protein abundance,[2]; concentration: 0.5mM,1.07 ± 0.15
same,NP40-soluble protein abundance,[2]; concentration: 1mM,1.11 ± 0.1
same,NP40-soluble protein abundance,[2]; concentration: 2mM,1.11 ± 0.18
same,NP40-soluble protein abundance,[2]; concentration: 4mM,1.11 ± 0.088
same,NP40-soluble protein abundance,[2]; concentration: 6mM,1.11 ± 0.1
same,NP40-soluble protein abundance,[2]; concentration: 8mM,1.14 ± 0.089
same,NP40-soluble protein abundance,[2]; concentration: 10mM,1.1 ± 0.081
same,NP40-soluble protein abundance,[3]; concentration: 0.1mM,1.01 ± 0.037
same,NP40-soluble protein abundance,[3]; concentration: 0.5mM,1.04 ± 0.028
same,NP40-soluble protein abundance,[3]; concentration: 1mM,1.01 ± 0.017
same,NP40-soluble protein abundance,[3]; concentration: 2mM,0.994 ± 0.024
same,NP40-soluble protein abundance,[3]; concentration: 4mM,0.9791 ± 0.0093
same,NP40-soluble protein abundance,[3]; concentration: 6mM,0.9661 ± 0.0057
same,NP40-soluble protein abundance,[3]; concentration: 8mM,0.999 ± 0.03
same,NP40-soluble protein abundance,[3]; concentration: 10mM,0.939 ± 0.023
same,NP40-soluble protein abundance,[4]; concentration: 0.1mM,0.928 ± 0.038
same,NP40-soluble protein abundance,[4]; concentration: 0.5mM,0.907 ± 0.035
same,NP40-soluble protein abundance,[4]; concentration: 1mM,1 ± 0.044
same,NP40-soluble protein abundance,[4]; concentration: 2mM,1.05 ± 0.045
same,NP40-soluble protein abundance,[4]; concentration: 4mM,1.15 ± 0.024
same,NP40-soluble protein abundance,[4]; concentration: 6mM,1.28 ± 0.036
same,NP40-soluble protein abundance,[4]; concentration: 8mM,1.36 ± 0.039
same,NP40-soluble protein abundance,[4]; concentration: 10mM,1.54 ± 0.075
same,NP40-soluble protein abundance,[5]; concentration: 0.1mM,0.938 ± 0.075
same,NP40-soluble protein abundance,[5]; concentration: 0.5mM,0.959 ± 0.062
same,NP40-soluble protein abundance,[5]; concentration: 1mM,0.964 ± 0.086
same,NP40-soluble protein abundance,[5]; concentration: 2mM,0.934 ± 0.088
same,NP40-soluble protein abundance,[5]; concentration: 4mM,0.946 ± 0.075
same,NP40-soluble protein abundance,[5]; concentration: 6mM,0.944 ± 0.052
same,NP40-soluble protein abundance,[5]; concentration: 8mM,0.972 ± 0.086
same,NP40-soluble protein abundance,[5]; concentration: 10mM,0.971 ± 0.092
same,NP40-soluble protein abundance,VRK1; concentration: 0.1mM,1.11 ± 0.042
same,NP40-soluble protein abundance,VRK1; concentration: 0.5mM,1.24 ± 0.052
same,NP40-soluble protein abundance,VRK1; concentration: 1mM,1.21 ± 0.029
same,NP40-soluble protein abundance,VRK1; concentration: 2mM,1.31 ± 0.085
same,NP40-soluble protein abundance,VRK1; concentration: 4mM,1.34 ± 0.078
same,NP40-soluble protein abundance,VRK1; concentration: 6mM,1.38 ± 0.093
same,NP40-soluble protein abundance,VRK1; concentration: 8mM,1.33 ± 0.093
same,NP40-soluble protein abundance,VRK1; concentration: 10mM,1.3 ± 0.024

# In a second layout: entries from further up.
smiles | measurement | setting | value
Nc1nc2c(ncn2[C@@H]2O[C@H](COP(=O)(O)OP(=O)(O)OP(=O)(O)O)[C@@H](O)[C@H]2O)c(=O)[nH]1 [guanosine triphosphate] | NP40-soluble protein abundance | [3]; concentration: 2mM | 0.994 ± 0.024
same | NP40-soluble protein abundance | [3]; concentration: 4mM | 0.9791 ± 0.0093
